No constants are given. Whether binding was seen depends on the method and setting. Some results given as binding are weak or reduced against the parent protein; the word gives no strength.
Assays:
[1] = target: biotinylated human IL-1RI (human) (UniProt P14778); test: ECL competition, IL-1 signaling complex formation assay of Example 3
[2] = target: biotinylated human IL-1RI (human) (UniProt P14778); test: ECL competition, IL-1 signaling complex formation assay: IL-1RI-coated beads, IL-1β as competitor, IL-1RAcP-Fc-TAG for detection

Sequences of proteins named here, by UniProt entry; tags and fusion partners are left off. A change or cut given only in a name is not applied to a line headed by its entry. Residues count along the entry.
UniProt P14778, residues 18-336: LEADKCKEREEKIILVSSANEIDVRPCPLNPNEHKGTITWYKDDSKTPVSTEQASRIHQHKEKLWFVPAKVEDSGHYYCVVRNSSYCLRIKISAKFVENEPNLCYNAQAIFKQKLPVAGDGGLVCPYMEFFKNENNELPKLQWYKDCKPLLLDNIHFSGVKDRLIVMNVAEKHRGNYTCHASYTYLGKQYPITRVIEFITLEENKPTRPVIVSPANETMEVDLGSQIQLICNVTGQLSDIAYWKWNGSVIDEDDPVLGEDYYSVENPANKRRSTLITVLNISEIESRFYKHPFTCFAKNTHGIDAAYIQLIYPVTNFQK
UniProt P18510: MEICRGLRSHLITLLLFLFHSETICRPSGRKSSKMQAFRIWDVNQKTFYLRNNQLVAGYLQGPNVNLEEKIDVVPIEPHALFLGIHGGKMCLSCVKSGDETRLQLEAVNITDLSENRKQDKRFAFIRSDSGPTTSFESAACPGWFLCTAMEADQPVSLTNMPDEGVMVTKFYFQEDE

Substance	binding [1]	binding [2]
IL-1ra K93A mutant protein (from UniProt P18510 26-177) (ligand)	binds	binds
IL-1ra R97D mutant protein (from UniProt P18510 26-177) (ligand)	binds	binds
IL-1ra wild-type protein (human recombinant interleukin-1 receptor antagonist having the sequence of SEQ ID NO: 5) (from UniProt P18510 26-177) (ligand)	binds	binds

— patent US20050282752A1
